This note sets out measurements from PMC10728138.

The chains behind the UniProt entries cited, without tags or fusion partners.
UniProt Q8R4B8: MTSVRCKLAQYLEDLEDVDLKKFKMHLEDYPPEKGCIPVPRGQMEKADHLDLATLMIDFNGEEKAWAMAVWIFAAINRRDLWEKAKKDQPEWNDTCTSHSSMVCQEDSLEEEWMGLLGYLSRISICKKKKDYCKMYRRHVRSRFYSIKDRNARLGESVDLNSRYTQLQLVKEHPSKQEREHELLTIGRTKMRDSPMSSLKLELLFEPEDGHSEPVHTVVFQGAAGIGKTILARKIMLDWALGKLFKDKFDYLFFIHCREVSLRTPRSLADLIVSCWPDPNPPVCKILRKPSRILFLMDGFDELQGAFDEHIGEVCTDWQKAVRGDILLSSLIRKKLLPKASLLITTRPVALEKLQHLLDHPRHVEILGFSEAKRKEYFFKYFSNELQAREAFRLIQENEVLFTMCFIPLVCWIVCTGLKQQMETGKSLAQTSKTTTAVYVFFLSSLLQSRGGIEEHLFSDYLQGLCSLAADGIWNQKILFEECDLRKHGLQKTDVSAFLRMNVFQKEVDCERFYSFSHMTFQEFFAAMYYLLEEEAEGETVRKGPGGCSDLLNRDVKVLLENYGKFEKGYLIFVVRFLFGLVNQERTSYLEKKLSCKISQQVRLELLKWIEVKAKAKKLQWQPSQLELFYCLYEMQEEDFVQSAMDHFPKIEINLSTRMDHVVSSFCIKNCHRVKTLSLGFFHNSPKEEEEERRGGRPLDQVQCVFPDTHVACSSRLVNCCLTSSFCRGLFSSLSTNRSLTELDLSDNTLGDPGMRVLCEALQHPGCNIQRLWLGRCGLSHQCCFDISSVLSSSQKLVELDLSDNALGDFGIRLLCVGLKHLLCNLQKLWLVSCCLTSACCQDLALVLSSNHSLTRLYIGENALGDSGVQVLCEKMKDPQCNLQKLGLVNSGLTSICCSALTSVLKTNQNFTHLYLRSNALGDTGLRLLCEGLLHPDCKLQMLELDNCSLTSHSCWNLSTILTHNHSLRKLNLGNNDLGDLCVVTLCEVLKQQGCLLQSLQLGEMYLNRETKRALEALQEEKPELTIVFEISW
UniProt Q8CHK4: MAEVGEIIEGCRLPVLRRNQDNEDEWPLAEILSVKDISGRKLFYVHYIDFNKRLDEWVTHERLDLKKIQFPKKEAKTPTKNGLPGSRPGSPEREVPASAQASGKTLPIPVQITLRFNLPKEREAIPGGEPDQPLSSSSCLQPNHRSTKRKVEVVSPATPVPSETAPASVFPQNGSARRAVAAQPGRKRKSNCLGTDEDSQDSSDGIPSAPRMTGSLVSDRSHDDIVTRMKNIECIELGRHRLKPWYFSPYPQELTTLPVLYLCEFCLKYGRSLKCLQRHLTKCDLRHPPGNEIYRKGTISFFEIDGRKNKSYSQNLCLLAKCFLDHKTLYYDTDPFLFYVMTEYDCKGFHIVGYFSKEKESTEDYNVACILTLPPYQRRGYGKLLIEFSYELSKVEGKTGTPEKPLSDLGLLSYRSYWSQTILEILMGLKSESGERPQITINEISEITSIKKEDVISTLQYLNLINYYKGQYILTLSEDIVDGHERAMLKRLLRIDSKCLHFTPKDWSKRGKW

Results are given in words; binding and its absence hold for the method and conditions named. For some assays here: Binding seen in cells or lysates may run through a third protein. Some results given as binding are weak or reduced against the parent protein; the word gives no strength.

In experiment [1] the target is endogenous NLRP3 of mouse macrophages (mouse (endogenous in peritoneal macrophages and BMDMs)) (UniProt Q8R4B8). Nature of the experiment: co-IP; endogenous proteins in mouse peritoneal macrophages treated with LPS (100 ng/mL, 3 h) alone or with nigericin (10 μM, 1 h); specific Abs or IgG overnight at 4 °C, protein A/G plus agarose; immunoblot. For orientation: In western blotting, separated proteins are transferred to a membrane and probed.

Experiment [2] addresses recombinant murine KAT5-GST (mouse) (UniProt Q8CHK4). The experiment can be described thus: pull-down; 2 μg KAT5-GST or GST on Glutathione Sepharose 4B, incubated with 2 μg NLRP3-His for 2 h at 4 °C in 20 mM HEPES pH 7.9, 150 mM NaCl, 0.5 mM EDTA, 1 mM DTT, 10% glycerol, 0.1% Triton-X-100; immunoblot; both purified.

In the case of “endogenous KAT5 (lysine acetyltransferase 5) of mouse peritoneal macrophages (from UniProt Q8CHK4 1-513) (enzyme)”, the binding result in experiment [1] is recorded as “binds”. Turning to “recombinant murine NLRP3-His (from UniProt Q8R4B8 1-1033)”, the binding entry in experiment [2] was “binds”.
